“And” between values parts separate entries of the source, which are not always exact repeats. Equal values may be shown once. Read-outs that look alike come from different tables or passages of the source. Values belong to the compound of their own block, whether it stands above or below them.
Assays:
[1] = not given; remark: listed apart in the source
[2] = not given; remark: listed apart in the source
[3] = With excess free lauric acid (1.1 eq.); after mixing overnight at room temperature
[4] = after vacuum oven at 50° C. over the weekend, MTBE/n-heptane Bottom Layer
[5] = after vacuum oven at 50° C. over the weekend, MTBE/n-heptane Top Layer
[6] = Expt. 0: Initial Me-THF Solution
[7] = Me-THF Layer (final), repeated 5.0 g scale preparation
[8] = Me-THF layer after overnight ambient

- “Acid A” observation by HPLC (first month of use): not observed
- GP % AUC Purity (new, freshly isolated sample): 95.89% AUC
- “Acid A” % w/w (new, freshly isolated sample): 0.13% w/w
- “Acid A” AUC % (new, freshly isolated sample): 0.50% AUC %
- GP % AUC Purity (retest after ~4 months at ambient conditions): 87.33% AUC
- “Acid A” % w/w (retest after ~4 months at ambient conditions, listed as EE-008-001-3B): 2.44 % w/w
- “Acid A” AUC % (retest after ~4 months at ambient conditions, relative to glycopyrronium content, listed as EE-008-001-3B): 9.29 AUC % and 9.29% AUC %
SMILES: C[N+]1(C)CCC(OC(=O)C(O)(c2ccccc2)C2CCCC2)C1 (stereo not drawn) [glycopyrronium stearate]

- HPLC Results (AUC) Acid A ([1]; Oil Product, before drying): 4.84%
- HPLC Results (AUC) Glycopyrronium ([1]; Oil Product, before drying): 93.82%
- HPLC Results (AUC) Acid A [1, 4]: 15.06%
- HPLC Results (AUC) Glycopyrronium [1, 4]: 83.94%
- HPLC Results (AUC) Acid A [1, 5]: 12.37%
- HPLC Results (AUC) Glycopyrronium [1, 5]: 86.80%
- HPLC Results Acid A [2, 6]: 6.07% AUC %
- HPLC Results Glycopyrronium [2, 6]: 90.67 AUC % and 90.67% AUC %
- HPLC Results Acid A ([2]; Expt. 1A: Me-THF Solution at RT over weekend): 9.26% AUC %
- HPLC Results Acid A ([2]; Expt. 1B: Me-THF Solution at 50° C. over weekend, Bottom layer): 46.08% AUC %
- HPLC Results Acid A ([2]; Expt. 1B: Me-THF Solution at 50° C. over weekend, Top layer): 40.08% AUC %
- HPLC Results Acid A ([2]; Expt. 2A: Me-THF Solution in the presence of Lauric Acid at RT over weekend): 6.61% AUC %
- HPLC Results Acid A ([2]; Expt. 2B: Me-THF Solution in the presence of Lauric Acid at 50° C. over weekend, Bottom layer): 30.01% AUC %
- HPLC Results Acid A ([2]; Expt. 2B: Me-THF Solution in the presence of Lauric Acid at 50° C. over weekend, Top layer): 28.36% AUC %
- HPLC Results (AUC) Acid A [2, 7]: 4.12%
- HPLC Results (AUC) Glycopyrronium [2, 7]: 91.06%
- HPLC Results (AUC) Acid A [2, 8]: 6.07%
- HPLC Results (AUC) Glycopyrronium [2, 8]: 90.67%
- product content remaining ([2]; Me-THF solution at 50° C. over weekend with excess free lauric acid present (both layers)): 65-70 area %
- formation of the by-product Acid A [3]: no formation
SMILES: C[N+]1(C)CCC(OC(=O)C(O)(c2ccccc2)C2CCCC2)C1 (stereo not drawn) [glycopyrronium laurate]

Reference: patent publication US10519109B2, “Glycopyrronium fatty acid salts and methods of making same” (QAAM PHARMACEUTICALS, LLC, priority 2015, dated 2019)
